For 1 molecule, IC50 results are on record in patent US10954200B1, “Anti-angiogenesis compound” (KING SAUD UNIVERSITY, priority 2019, dated 2021).

What all share (assay type): cell-based, human
In assay [1] the test system is MCF-7 cells. In words: Trypan blue dye exclusion assay, MCF-7. As to conditions: MCF-7, 48 h; read-out: IC50 value (μM) against MCF-7 cells, Trypan blue assay. As to the method: (§1) Breast cancer cells (MCF-7), lung cancer cells (A549), Hela cells, and peripheral blood mononuclear cells (PBMC) were purchased from the National Center for Cell Sciences (NCCS), Pune, India. The cancer cells were maintained in Dulbecco's modified eagles medium (DMEM), supplemented with 2 mM 1-glutamine and balanced salt solution (BSS), adjusted to contain 1.5 g/L Na2CO3, 0.1 mM nonessential amino acids, 1 mM sodium pyruvate, 2 mM 1-glutamine, 1.5 g/L glucose, 10 mM (4-(2-hydroxyethyl)-1-piperazineethane sulfonic acid) (HEPES), and 10% fetal bovine serum (GIBCO, USA). Penicillin and streptomycin (100 IU/100 μg) were adjusted to 1 mL/L. The cells were maintained at 37° C. with 5% CO2 in a humidified CO2 incubator.
(§2) The cytotoxic effects of synthesized compounds on various types of cancer cells were determined by trypan blue dye exclusion assay. The cultured cells were treated with the synthesized compounds and incubated for 48 h. After the incubation period, the cells were detached by 0.5% trypan-EDTA solution, harvested by centrifugation at 3000 rpm for 5 minutes and diluted in 1 ml of PBS. […] About 20 μl of cell suspensions were carefully and continuously filled in the haemocytometer chamber and viable cells were counted in 1×1 mm squares, four chambers and the average number of cells per square determined. Total viable cells were determined using the following formula, […]

Assay [2] has as its system MCF-7 cells. Kind of assay: MTT cell viability assay, MCF-7. The following applies: MCF-7, 48 h; read-out: IC50 value (μM) against MCF-7 cells, MTT assay. As to the method:
as §1
(§3) The inhibitory concentration (IC50) value was evaluated using an MTT [3-(4,5-dimethylthiazol-2-yl)-2,5-diphenyltetrazolium bromide] assay. Cancer cells were grown (1×10^4 cells/well) in a 96-well plate for 48 h to 75% confluence. The medium was replaced with fresh medium containing serially diluted synthesized compounds, and the cells were further incubated for 48 h. The culture medium was removed, and 100 μL of the MTT [3-(4,5-dimethylthiozol-2-yl)-3,5-diphenyl tetrazolium bromide] (Hi-Media, Mumbai, India) solution was added to each well and incubated at 37° C. for 4 h. […] The optical density was measured at 620 nm in an ELISA multiwell plate reader (Thermo Multiskan EX, USA). […]
(In general: Tetrazolium dyes change colour on reduction, which living cells bring about.)

The subject of assay [3] is Hela cells. In words: Trypan blue dye exclusion assay, Hela. As to conditions: 48 h, read-out: IC50 value (μM) against Hela cells, Trypan blue assay. The protocol: as §1, §2
The test system of assay [4] is Hela cells. In words: MTT cell viability assay, Hela. The following applies: 48 h, read-out: IC50 value (μM) against Hela cells, MTT assay. The protocol:
as §1, §3

In assay [5] the test system is A549 cells. In words: Trypan blue dye exclusion assay, A549. The following applies: A549, 48 h; read-out: IC50 value (μM) against A549 cells, Trypan blue assay. As to the method:
as §1, §2

Assay [6] deals with A549 cells. Kind of assay: MTT cell viability assay, A549. The following applies: A549, 48 h; read-out: IC50 value (μM) against A549 cells, MTT assay. As to the method: as §1, §3

For orientation: IC50 means the point on the concentration scale where inhibition reaches its midpoint. On to `N.N.[Cl][Pt][Cl]` [Cisplatin, reference compound], for which the 50% inhibitory concentration (IC50) turned out to be 6.7 ± 0.5 µM in the assay with MCF-7 cells [1]; 5.9 ± 0.5 µM in the assay on MCF-7 cells [2]; 6.6 ± 0.2 µM in the assay on Hela cells [3]; 5.9 ± 1 µM in the assay on Hela cells [4]; 6.4 ± 1.8 µM in the assay with A549 cells [5]; 6.5 ± 0.5 µM in the assay on A549 cells [6].
